These are yes or no findings as the source states them, for the method shown. Some results given as binding are weak or reduced against the parent protein; the word gives no strength. Sequences can lack the tags named with a protein.
Columns and labels:
fractalkine (FKN) [1] = molecular target: fractalkine (FKN) (UniProt P78423); assay: ELISA: GST-peptide on FKN coated at 10 ug/ml, anti-GST-HRP
fractalkine (FKN) [2] = molecular target: fractalkine (FKN) (UniProt P78423); assay: ELISA binding assay (FIG. 12)

The chains behind the UniProt entries cited, without tags or fusion partners. Residues count along the entry.
UniProt P78423, residues 25-100: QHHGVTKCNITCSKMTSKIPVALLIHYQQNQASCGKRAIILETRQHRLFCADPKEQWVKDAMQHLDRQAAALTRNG

binding (fractalkine (FKN) [1]): binds
binding (fractalkine (FKN) [2]): binds
Binder: LPNDGQCHLENNMYTMSHYY (peptide, not shown: a dimerising Fc or GST) [site 2 peptide from integrin β1 (S2-β1 peptide, β1 275-294), linear, GST fusion]
